Results on one compound are retold here after paper PMC11665553, “12-Lipoxygenase inhibition delays onset of autoimmune diabetes in human gene replacement mice” (JCI Insight, 2024).

Series [1] has as its system islets from NOD.hALOX12 mice. Briefly: RNA sequencing of islets isolated from treated NOD.hALOX12 mice. In kind it is in vivo, mouse.
Series [2] has as its system BMDMs from NOD.hALOX12 mice. Briefly: RNA sequencing of M0 and M1-like polarized BMDMs. Type of series: cell-based, mouse. The conditions noted are these: 10 μM. From the text:
BMDMs were unpolarized (M0) or polarized to an M1-like state (with lipopolysaccharide and IFN-γ) to mimic the inflammatory state that might be observed during T1D pathogenesis.
These common genes mapped to pathways related to cytokine-mediated signaling, T cell activation, and antigen processing and presentation (Supplemental Figure 3B). […] The 507 genes altered with vehicle treatment mapped to GO pathways related to the M1 polarization phenotype (myeloid cell differentiation, immune response, response to cytokines) and pathways related to oxidative stress (cell redox homeostasis, response to hydrogen peroxides) (Figure 5E). These pathways were not identified in the genes that were differentially expressed during VLX-1005 treatment.
BMDMs were isolated from 8-week-old NOD.hALOX12 mice as described previously ([2]). The isolated BMDMs were cultured for 7 days in complete medium (RPMI 1640 containing 10% FBS, 10 mM HEPES, and 100 U/mL penicillin/streptomycin) supplemented with 10 ng/mL M-CSF. […] After 1-hour pretreatment, the BMDMs were further stimulated with 10 ng/mL LPS and 25 ng/mL IFN-γ for 18 hours for M1-like polarization. RNA was isolated and used for sequencing.
RNA extraction was performed using RLT Buffer, according to the manufacturer’s instructions (Qiagen). Samples were submitted for library generation and sequencing by the University of Chicago sequencing core using a NovaSeq 6000 (Illumina). Data were analyzed using Galaxy (https://usegalaxy.org/). Reads were aligned to the Mus musculus genome build mm10 using HISAT2 (https://daehwankimlab.github.io/hisat2/). Individual sample reads were quantified using HTseq-count and normalized using DESeq2 (https://bioconductor.org/packages/release/bioc/html/DESeq2.html). DEseq2 was also used to calculate FCs and P values and to perform optional covariate correction. GO was used for pathway analysis.

Structures are written as SMILES.

Take `COc1cccc(CNc2ccc(S(=O)(=O)Nc3nc4ccccc4s3)cc2)c1O` [VLX-1005]: the “Differentially expressed genes in islets vs vehicle” value in series [1] (FDR less than 0.05 and FC greater than 2) worked out at 189 genes. Further, the “Genes changed in islets vs vehicle” value in series [1] (P-value cutoff 0.05 and FC greater than 2) is listed as 709 genes. Also, in series [2] (FC > 2 and P < 0.05), the “Additional genes significantly altered in M0 to M1 transition with treatment only” value was 459 genes and the “Fraction of genes significantly altered in M0 BMDMs vs vehicle” value is given as 1%. In addition, the “Genes significantly altered in M0 BMDMs vs vehicle” value in series [2] (FC > 2 and P < 0.05, out of 15,888) is given as 159 genes.
